# Laboratory results published in PubChem BioAssay AID540276 (National Center for Advancing Translational Sciences (NCATS), 2011).
# The whole screen tested about 300,000 compounds, of which about 5,400 (1.8%) were called active. The shares of active, inactive and inconclusive entries below differ from those in the screen. Calls come from the whole dose curve; tested in HEK293 cells. A potency beside an inconclusive call is a rough fit, not a confirmed value.
# Assay: qHTS for inhibitors of binding or entry into cells for Marburg Virus
# Conditions: Marburg virus pseudotyped entry inhibition, cell reporter; series mostly up to 37.8 µM
# Potency is the fitted concentration of half-maximal effect.
row,Structure (SMILES),Potency
1,CN(C)c1ccc(C(C(=O)NC2CCCC2)N(Cc2cccnc2)C(=O)c2snc(C(N)=O)c2N)cc1 (centres undefined),inactive
2,C=CCn1c(C)csc1=Nc1ccc(C(C)=O)cc1,inactive
3,Cc1nnc(SCC(=O)N(C)CC(=O)Nc2ccc(F)cc2)n1Cc1ccccc1,"inconclusive: 3.55 µM [inhibitor, single point]"
4,O=C(Nc1ccccc1)N1CCN(c2ccc(C(F)(F)F)cn2)CC1,inactive
5,Cc1cccc(NS(=O)(=O)c2cccc(C(=O)NCC(c3ccc(F)cc3)N3CCOCC3)c2)c1 (centres undefined),"inconclusive: 0.891 µM [inhibitor, full curve, poor fit]"
6,CCCCn1c(SCC(=O)c2c(N)n(C3CC3)c(=O)[nH]c2=O)nc2cc(S(N)(=O)=O)ccc21,"inconclusive: 0.112 µM [inhibitor, full curve, poor fit]"
7,COc1ccc(C(=O)/C=C/Nc2cc(C)ccn2)cc1,active: 1.26 µM
8,C(=N\Nc1nc2ccccc2[nH]1)/c1ccc2c(c1)OCO2,"inconclusive: 35.5 µM [inhibitor, single point]"
9,CCN(CC)c1ccc(CNc2nc3ccccc3n2CCN2CCOCC2)cc1,active: 11.2 µM
10,Cn1cc(Cl)c(C(=O)NNC(=S)Nc2cccc(Cl)c2)n1,"inconclusive: 11.2 µM [inhibitor, partial curve, poor fit]"
11,Cc1cccc(N2C(=O)CC(Sc3ccccc3C(=O)O)C2=O)c1 (centres undefined),"inconclusive: 3.55 µM [activator, full curve, poor fit]"
12,CCOC(=O)NCCc1c(C)nc2c(c(C)nn2C(C)(C)C)c1C,"inconclusive: 25.1 µM [inhibitor, single point]"
13,CCc1nc2ccc(C(=O)NCCCN3CCN(c4ccc(F)cc4)CC3)cc2nc1CC,"inconclusive: 22.4 µM [inhibitor, single point]"
14,Fc1ccc(Nc2nc(Nc3ccc(F)cc3)nc(N3CCOCC3)n2)cc1,"inconclusive: 7.08 µM [inhibitor, partial curve, poor fit]"
15,COc1ccc(CN2CCC(C(=O)Nc3ccc(Oc4cccnc4)cc3)CC2)cc1,"inconclusive: 35.5 µM [inhibitor, single point]"
16,O=S(=O)(c1cccs1)N1CCC(CO)(Cc2ccc(Cl)cc2)CC1,active: 7.94 µM
17,CCOP(=O)(OCC)C(O)c1cccc([N+](=O)[O-])c1 (centres undefined),"inconclusive: 2.82 µM [inhibitor, single point]"
18,O=C(NCC1=C(Cl)CCCC1)C1CNCCC1C(F)(F)F (centres undefined),inactive
19,COc1cc(NC(=S)NC(=O)c2ccco2)ccc1NC(=O)C(C)C,inactive

# Some of the entries above in another layout.
row | Structure (SMILES) | Potency
8 | C(=N\Nc1nc2ccccc2[nH]1)/c1ccc2c(c1)OCO2 | inconclusive: 35.5 µM [inhibitor, single point]
13 | CCc1nc2ccc(C(=O)NCCCN3CCN(c4ccc(F)cc4)CC3)cc2nc1CC | inconclusive: 22.4 µM [inhibitor, single point]
